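Methionyl-tRNA synthetase (putative), Leishmania donovani (UniProt E9BF75). Primary screen of methionyl-tRNA synthetase; the read-out is not stated. The test concentration is not given. Values are per cent inhibition. Size under these conditions: about 68,000 compounds, about 24 of them at 50% or above in at least one test.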

Chains of the proteins cited; added tags and fusions are not shown.
UniProt E9BF75, entry or part of it: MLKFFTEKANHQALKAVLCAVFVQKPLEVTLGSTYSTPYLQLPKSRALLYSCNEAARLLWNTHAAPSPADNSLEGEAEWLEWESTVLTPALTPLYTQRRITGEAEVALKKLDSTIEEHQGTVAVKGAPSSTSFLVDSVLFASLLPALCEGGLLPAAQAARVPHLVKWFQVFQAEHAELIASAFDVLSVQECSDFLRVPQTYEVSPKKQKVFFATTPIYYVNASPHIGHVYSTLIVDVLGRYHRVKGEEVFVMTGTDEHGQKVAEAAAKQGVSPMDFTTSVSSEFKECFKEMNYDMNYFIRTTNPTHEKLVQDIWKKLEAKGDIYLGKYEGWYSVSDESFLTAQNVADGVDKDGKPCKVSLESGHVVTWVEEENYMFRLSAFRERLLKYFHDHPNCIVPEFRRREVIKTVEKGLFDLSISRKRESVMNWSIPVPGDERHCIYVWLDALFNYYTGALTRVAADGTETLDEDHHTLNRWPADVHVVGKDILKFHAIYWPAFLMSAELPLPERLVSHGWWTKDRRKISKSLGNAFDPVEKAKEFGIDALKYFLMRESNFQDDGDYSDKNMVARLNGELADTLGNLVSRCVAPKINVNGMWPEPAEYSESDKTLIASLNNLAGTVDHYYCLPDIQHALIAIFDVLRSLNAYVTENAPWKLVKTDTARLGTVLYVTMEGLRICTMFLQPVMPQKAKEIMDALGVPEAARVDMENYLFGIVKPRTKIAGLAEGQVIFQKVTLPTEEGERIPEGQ

All values are in %.
How 0% and 100% were set is not recorded. Most values in the screen are low, and negative values occur.
The compounds are a random part of those screened.

structure	Inhibition
Cc1ccsc1C(=O)N1Cc2ncn(C)c2C(COCC2CC2)C1 (centres unmarked)	6.383%
Cc1nc(CN2CCO[C@@H]3CC(COc4ccccn4)C[C@H]32)cs1 (some centres unmarked)	16.94%
Cc1cnn(CC2CN(Cc3nc(-c4ccco4)no3)CCO2)c1 (centres unmarked)	23.01%
CC(C)Cc1cc(C(=O)NCc2nnc[nH]2)[nH]n1	12.68%
CCCc1c(C(=O)NC2CCCC2)nnn1-c1ccc(OC)cc1	3.147%
CS(=O)(=O)N[C@@H]1CN(Cc2ccncc2)C[C@@H]2CCCO[C@@H]21	6.667%
OCC(O)CSCc1cn(-c2ccc(Cl)c(Cl)c2)nn1 (centres unmarked)	8.564%
CS(=O)(=O)c1ccc(CN2C[C@@H]3OCC(=O)N(CC(N)=O)[C@@H]3C2)cc1	7.519%
Cc1nn(C)c(C)c1C1CCCN1c1ncnc2c1CCC2 (centres unmarked)	15.07%
CCC1(CC)CC(=O)N(CC(O)c2cccc(Br)c2)C1=O (centres unmarked)	4.336%
Cc1cc(CNC(=O)N2CCN(C(C)c3cccnc3)CC2)c(C)o1 (centres unmarked)	0%
COc1nn(C)c2c1CCCN(S(=O)(=O)c1cccs1)C2	-3.78%
CC(C)CCN1CCNC(=O)C1CC(=O)NCCc1cc(O)ncn1 (centres unmarked)	4.077%
Cc1ccc(CN2CCc3nnc(CN4CCCC4=O)n3CC2)s1	17.37%
CCc1nnc2n1CC(CNCc1ccncc1)CC2 (centres unmarked)	12.39%
Cc1nc2cc(C(=O)N(CCN(C)C)CCN(C)C)ccc2n1C	12.1%
CN(C)C(=O)Cn1c2c(ccc1=O)CC(NCc1ccoc1)CC2 (centres unmarked)	11.96%
CC(C)C(=O)NC1CCCN(C(=O)c2cc3ccccc3cc2O)C1 (centres unmarked)	22.79%
O=C(CC1Cn2ncnc2NC1=O)Nc1cccc(C(F)(F)F)c1 (centres unmarked)	11.43%
O=C(CNCCn1cccn1)NCC1(c2ccccc2)CC1	8.333%
COCC1CN(S(=O)(=O)C2CC2)Cc2ncn(CC3CC3)c21 (centres unmarked)	8.629%
COCCN1CCCN(C(=O)NC(C)Cn2cccn2)CC1 (centres unmarked)	8.014%
Cn1cc(CCN2CCOC(CNc3cccnn3)C2)cn1 (centres unmarked)	1.705%
CCn1nc(C(=O)N2CCCC2c2noc(C3CC3)n2)ccc1=O (centres unmarked)	1.882%
Cc1nc(CN(C)C(=O)c2ccc(Cn3cnnn3)cc2)cs1	123%
CC1(C)CC(N2CCN(C3CCCC3)C(CCO)C2)CC(C)(C)C1 (centres unmarked)	9.348%
Cc1nc(-c2ccoc2)n(CC(=O)NCC(C)C)c1C	12.5%
O=C(Nc1cc(C(F)(F)F)c[nH]c1=O)C1CCCO1 (centres unmarked)	16.49%
Cc1ncsc1CCC(=O)NCc1csc(N2CCCC2)n1	20.51%
Cc1c(C(=O)NC2CC(C)(C)NC(C)(C)C2)cnn1-c1ccc(F)cc1	11.54%
Cc1cc(C)c(C(=O)NC2CCCc3nc(N(C)C)ncc32)cc1C (centres unmarked)	12.06%
CCc1nc(C)c(C(=O)N2C[C@@H](C(=O)O)[C@H](C3CC3)C2)s1	5.42%
CC(C)c1noc(CN2CCN(C(=O)c3ccccc3F)CC2)n1	13.02%
COc1cc(NCc2ccccc2-n2cncn2)nc(N)n1	13.43%
O=C(C(NCc1cccc(F)c1F)c1ccccc1)N1CCOCC1 (centres unmarked)	11.52%
O=C(N1CCCC1)N1C[C@H]2CC[C@@H]1CN(Cc1ccncc1)C2	7.666%
CC(C)SCC(=O)N1CCc2c(nc(N(C)C)nc2N(C)C)C1	18.54%
CCS(=O)(=O)Nc1ccn(Cc2cccc(F)c2)n1	9.348%
Cc1ccc(S(=O)(=O)N2CCc3ccc(F)cc32)cc1C(=O)O	10.12%
N#Cc1cccc(N2CCC(CO)(CCCc3ccccc3)CC2)n1	16.72%
CS(=O)(=O)CCC(=O)NC1(c2cccc(C(F)(F)F)c2)CCC1	11.21%
CC(C)N(CCNC(=O)c1[nH]nc2ccc(I)cc12)C(C)C	13.35%
Cc1cc(-c2cnc(C)nc2CN(C)C(=O)c2ccccn2)on1	7.742%
COc1cc(F)c(C(=O)NCc2cc(C)on2)c(F)c1	10.78%
Cc1cc(C)cc(OCCN2CCn3c(C)nnc3C2)c1	19.2%
CC(C)CC(=O)N1CCC(c2nnc3n2CCCCC3)CC1	14.79%
COc1cccc2c1OCCCN(c1nc(C)nc3c1CCNCC3)C2	11.29%
CN(CCCc1cc(-c2ccc(F)cc2)n[nH]1)C(=O)CCn1cncn1	9.441%
Cc1ccc2[nH]c(C(=O)NCCCn3ccnn3)c(C)c2c1	3.623%
Cn1cccc1C(=O)N1CCCC1c1ccc(CN2CCOCC2)cn1 (centres unmarked)	13.71%
O=C(CSc1ccccn1)N1C[C@H]2CC[C@@H]1CN(Cc1cscn1)C2	8.148%
CSc1nc2ccsc2c(=O)n1CC(=O)N(C)c1ccccc1	0%
CN(CC(C)(C)O)C1CCCN(Cc2noc(C3CC3)n2)C1 (centres unmarked)	-4.571%
Cn1ncc(C(=O)N2CCN(C(=O)c3ccco3)CC2)c1Cl	-8.794%
Cn1cnc2c1CCN(CCCS(=O)(=O)c1ccccc1)C2	3.757%
Cc1ncnc2c1CCN(C(=O)c1ccncc1)CC2	4.511%
O=C(Nc1ccccc1C(=O)N1CCCC1)NC1CCOCC1	9.749%
CCOCC(=O)Nc1cc(C)cnc1OC	12.4%
Cc1ccc(O)c(CN(Cc2ccccc2)Cc2nccs2)n1	11.34%
Cc1ncncc1C(=O)N1CCOC(C(=O)NC2CCCC2)C1 (centres unmarked)	17.55%
COc1nc2c(cc1C(=O)NCc1noc(Cc3cccs3)n1)CCC2	17.37%
COc1cccc(Nc2nc(-c3ccncc3)nc3c2CNCC3)c1	3.675%
CC(C)C(=O)N1Cc2ccccc2CC2(CCCCN2C)C1 (centres unmarked)	10.29%
C1CCC(CO[C@@H]2CC[C@H]3[C@H]2OCCN3CC2CCOCC2)C1	16.77%
Cc1cc(CN(C)C(=O)c2cccc(N3CCCS3(=O)=O)c2)no1	16.76%

Repeated from the top, 7 entries:

Cc1ccsc1C(=O)N1Cc2ncn(C)c2C(COCC2CC2)C1 (centres unmarked) gave 6.383%.
Cc1nc(CN2CCO[C@@H]3CC(COc4ccccn4)C[C@H]32)cs1 (some centres unmarked) gave 16.94%.
Cc1cnn(CC2CN(Cc3nc(-c4ccco4)no3)CCO2)c1 (centres unmarked) gave 23.01%.
CC(C)Cc1cc(C(=O)NCc2nnc[nH]2)[nH]n1 gave 12.68%.
CCCc1c(C(=O)NC2CCCC2)nnn1-c1ccc(OC)cc1 gave 3.147%.
CS(=O)(=O)N[C@@H]1CN(Cc2ccncc2)C[C@@H]2CCCO[C@@H]21 gave 6.667%.
OCC(O)CSCc1cn(-c2ccc(Cl)c(Cl)c2)nn1 (centres unmarked) gave 8.564%.

Data taken from ChEMBL document CHEMBL3988442, “University of Dundee, Small-Polar-MMV Screening Library” (2021).